From PubChem BioAssay AID248 (DTP/NCI, 2004) come the findings set out here.

The list shows only some results of the screen, not a fair sample: it is rich in T/C values a quarter to a half above the control, in often repeated tests (any T/C) and in doses without a T/C. Other doses and runs of a compound stand elsewhere. T/C: endpoint of the treated group in % of that of the vehicle group. Some doses have a count of surviving animals in place of a T/C: the source holds a T/C of zero for them, seemingly a mark for toxic or unscored doses. Some survivor counts are full or nearly so, which does not show that the dose was tolerated: the source hardly ever lists a survival T/C far under the control, and the zero likely stands for such cases as well. Survivors were counted at the toxicity check, usually on the fifth day, unless a day is given; later deaths do not show. Schedules are NCI's codes, read here as Q, the interval in days (D) or hours (H), X, the number of doses. Some schedule codes hold Z or #, which are not explained here. Some molecules as drawn cover several salts, stereoisomers or complexes of the source; a dose is that of the sample tested. Where survival is the endpoint, the PubChem record calls one and a half times the control and up active, and a quarter to a half above the control has no call in these data; cut-offs in other NCI protocols can differ. Some entries were tested several times; the results are listed from low to high.

The assay deals with L1210 leukemia ip in BDF1 mice, survival T/C. Nature of the assay: NCI In Vivo Anticancer Drug Screen. Data for tumor model L1210 Leukemia (intraperitoneal) in B6D2F1 (BDF1) mice. The conditions noted are these: T/C endpoint: mean survival time, higher T/C = longer survival.
[1] abbreviates: dose: 50.0 mg/kg/injection, schedule: Q01DX001 (ip), vehicle: carboxymethylcellulose (CMC).
The mark [2] stands for this setting: dose: 200.0 mg/kg/injection, schedule: Q04DX003 (ip), vehicle: saline.
The mark [3] stands for this setting: dose: 400.0 mg/kg/injection, schedule: Q01DX001 (ip), vehicle: saline.
Where [4] appears, read: dose: 400.0 mg/kg/injection, schedule: Q04DX003 (ip), vehicle: Klucel (hydroxypropylcellulose) (HPC).
Where [5] appears, read: dose: 400.0 mg/kg/injection, schedule: Q04DX003 (ip), vehicle: saline.

In the case of `CN(CCO)C1CCCCCCC1`, the survivor count reads like this: (dose: 200.0 mg/kg/injection, schedule: Q01DX001 (ip), vehicle: acetone) 1 of 6; (dose: 400.0 mg/kg/injection, schedule: Q01DX001 (ip), vehicle: acetone) 0 of 6.
Take `O=NN(CCCl)C(=O)NC1CCCC1`: the T/C by setting is: (dose: 12.5 mg/kg/injection, schedule: Q01DX001 (ip), vehicle: saline) 127 % of control; (dose: 26.0 mg/kg/injection, schedule: Q01DX001 (ip), vehicle: saline) 133 % of control; (dose: 40.0 mg/kg/injection, schedule: Q01DX001 (ip), vehicle: saline) 127 % of control; (dose: 60.0 mg/kg/injection, schedule: Q01DX001 (ip), vehicle: saline) 128 % of control. The survivor count is, setting by setting: (dose: 500.0 mg/kg/injection, schedule: Q01DX001 (ip), vehicle: saline) 4 of 6; (dose: 600.0 mg/kg/injection, schedule: Q01DX001 (ip), vehicle: saline) 2 of 6; (dose: 800.0 mg/kg/injection, schedule: Q01DX001 (ip), vehicle: saline) 0 of 6; (dose: 1000.0 mg/kg/injection, schedule: Q01DX001 (ip), vehicle: saline) 0 of 6; (dose: 1200.0 mg/kg/injection, schedule: Q01DX001 (ip), vehicle: saline) 0 of 6.
As for `CN(CCCl)c1ccc(C2N(Cc3ccccc3)c3ccccc3N2Cc2ccccc2)cc1`, the survivor count is listed as 1 of 4 (dose: 25.0 mg/kg/injection, schedule: Q01DX001 (ip), vehicle: carboxymethylcellulose (CMC)) and 0 of 4 under setting [1].
`O=C(c1ccc2ccccc2c1)c1cccc(F)c1C(=O)O` (tested in a mixture with another compound): under “dose: 300.0 mg/kg/injection, schedule: Q01DX001 (ip), vehicle: carboxymethylcellulose (CMC)”, the survivor count is 2 of 6.
Take `OC(CNc1ccc(Cl)cc1)CN1CCCCC1` (configuration not stated): the survivor count by setting is: under setting [2], 2 of 6; under setting [3], 3 of 6.
`O=C(CCCCC(=O)Nc1ccc(C(=O)Nc2cc(C3=NCCN3)cc(C3=NCCN3)c2)cc1)Nc1ccc(C(=O)Nc2cc(C3=NCCN3)cc(C3=NCCN3)c2)cc1`: the survivor count (dose: 80.0 mg/kg/injection, schedule: Q01DX Z (ip), vehicle: saline) is 2 of 6.
In the case of `Clc1ccc(Nc2cc[n+]3ccccc3c2)cc1Cl`, the survivor count (dose: 200.0 mg/kg/injection, schedule: Q01DX001 (ip), vehicle: Klucel (hydroxypropylcellulose) (HPC)) is recorded as 1 of 6 and the survivor count (dose: 400.0 mg/kg/injection, schedule: Q01DX001 (ip), vehicle: Klucel (hydroxypropylcellulose) (HPC)) is reported as 0 of 6.
Turning to `Cc1nc2c(nc1C)C(=O)C=CC2=O`, the survivor count is given as 2 of 4 (dose: 40.0 mg/kg/injection, schedule: Q01DX001 (ip), vehicle: carboxymethylcellulose (CMC)); 1 of 4 under setting [1]; 0 of 4 (dose: 80.0 mg/kg/injection, schedule: Q01DX001 (ip), vehicle: carboxymethylcellulose (CMC)); 2 of 4 (dose: 100.0 mg/kg/injection, schedule: Q01DX001 (ip), vehicle: carboxymethylcellulose (CMC)); 0 of 4 (dose: 200.0 mg/kg/injection, schedule: Q01DX001 (ip), vehicle: carboxymethylcellulose (CMC)); 0 of 4 (dose: 400.0 mg/kg/injection, schedule: Q01DX001 (ip), vehicle: carboxymethylcellulose (CMC)).
Regarding `C=CC[Se]CC=C`, the survivor count under setting [4] is listed as 1 of 6.
Consider `CC(C)(C)C1CCC(NC(=O)N(CCCl)N=O)CC1` (configuration not stated), for which the T/C is, setting by setting: (dose: 31.0 mg/kg/injection, schedule: Q01DX001 (ip), vehicle: other) 133 % of control; (dose: 62.0 mg/kg/injection, schedule: Q01DX001 (ip), vehicle: other) 142 % of control; (dose: 472.0 mg/kg/injection, schedule: Q01DX001 (ip), vehicle: other) 143 % of control; (dose: 944.0 mg/kg/injection, schedule: Q01DX001 (ip), vehicle: other) 137 % of control; (dose: 1500.0 mg/kg/injection, schedule: Q01DX001 (ip), vehicle: other) 146 % of control.
As for `C1=CC2CC1C1CSCC21` (configuration not stated), the survivor count is, setting by setting: (dose: 1.56 mg/kg/injection, schedule: Q01DX009 (ip), vehicle: saline) 6 of 6; (dose: 3.12 mg/kg/injection, schedule: Q01DX009 (ip), vehicle: saline) 6 of 6; (dose: 6.25 mg/kg/injection, schedule: Q04DX003 (ip), vehicle: saline) 1 of 6; (dose: 12.5 mg/kg/injection, schedule: Q04DX003 (ip), vehicle: saline) 0 of 6; (dose: 25.0 mg/kg/injection, schedule: Q04DX003 (ip), vehicle: saline) 1 of 6; (dose: 50.0 mg/kg/injection, schedule: Q04DX003 (ip), vehicle: saline) 1 of 6. The survivor count by setting is: (dose: 100.0 mg/kg/injection, schedule: Q04DX003 (ip), vehicle: saline) 0 of 6; under setting [2], 6 of 6; under setting [5], 6 of 6.
For the compound `CC(C)(C)c1ccc2oc(-c3ccc(-c4nc5cc(C(C)(C)C)ccc5o4)s3)nc2c1`, for the setting “dose: 400.0 mg/kg/injection, schedule: Q04DX003 (ip), vehicle: gum acacia”, the survivor count was 6 of 6.
Turning to `O=c1[nH]c2ccccc2nc1CBr`, the survivor count is, setting by setting: (dose: 100.0 mg/kg/injection, schedule: Q04DX003 (ip), vehicle: saline with Tween-80) 0 of 6; (dose: 200.0 mg/kg/injection, schedule: Q04DX003 (ip), vehicle: saline with Tween-80) 0 of 6; (dose: 400.0 mg/kg/injection, schedule: Q04DX003 (ip), vehicle: saline with Tween-80) 0 of 6.
On to `CC(C)(C)OC(=O)C(=O)C(OC(C)(C)C)C(=O)OC(C)(C)C` (configuration not stated), for which the survivor count under setting [3] is reported as 3 of 6.
For `Cc1cc(N(CCOS(C)(=O)=O)CCOS(C)(=O)=O)ccc1C=Nc1ccc(-c2csc(COc3ccccc3)n2)cc1`, the T/C was 135 % of control (dose: 66.0 mg/kg/injection, schedule: Q04DX003 (ip), vehicle: Klucel (hydroxypropylcellulose) (HPC)); 127 and 136 % of control (dose: 100.0 mg/kg/injection, schedule: Q04DX003 (ip), vehicle: Klucel (hydroxypropylcellulose) (HPC)); 148 % of control (dose: 150.0 mg/kg/injection, schedule: Q04DX003 (ip), vehicle: Klucel (hydroxypropylcellulose) (HPC)); 139 % of control (dose: 225.0 mg/kg/injection, schedule: Q04DX003 (ip), vehicle: Klucel (hydroxypropylcellulose) (HPC)). Moreover, the survivor count under setting [4] was 2 of 6.
With `CCOC(=O)Cc1nnn(C)n1`, the survivor count under setting [5] was 3 of 3.
With `O=C(Nc1ccc(C2=NCCN2)cc1)Nc1cccc(C(=O)Nc2ccc(C3=NCCN3)cc2)c1`, the T/C reads like this: (dose: 15.0 mg/kg/injection, schedule: Q01DX Z (ip), vehicle: carboxymethylcellulose (CMC)) 134 % of control; (dose: 60.0 mg/kg/injection, schedule: Q01DX Z (ip), vehicle: carboxymethylcellulose (CMC)) 131 % of control; (dose: 250.0 mg/kg/injection, schedule: Q01DX Z (ip), vehicle: carboxymethylcellulose (CMC)) 148 % of control; (dose: 480.0 mg/kg/injection, schedule: Q01DX Z (ip), vehicle: saline) 136 % of control. The survivor count (dose: 500.0 mg/kg/injection, schedule: Q01DX Z (ip), vehicle: carboxymethylcellulose (CMC)) is 0 of 6.
Turning to `CN(C)/N=C/c1cccc[n+]1C`, the survivor count is recorded as 0 of 6 (dose: 25.0 mg/kg/injection, schedule: Q01DX009 (ip), vehicle: saline); 0 of 6 (dose: 50.0 mg/kg/injection, schedule: Q01DX009 (ip), vehicle: saline); 0 of 6 (dose: 100.0 mg/kg/injection, schedule: Q01DX009 (ip), vehicle: saline); 0 of 6 (dose: 200.0 mg/kg/injection, schedule: Q01DX009 (ip), vehicle: saline); 0 of 6 (dose: 400.0 mg/kg/injection, schedule: Q01DX009 (ip), vehicle: saline).
On to `CCOP(=O)(OCC)Oc1cc(C)c(SC)c(C)c1`, for which the survivor count (dose: 300.0 mg/kg/injection, schedule: Q01DX001 (ip), vehicle: saline) was 0 of 6.
